PMC4770587
No constants are given. Whether binding was seen depends on the method and setting. Some binding calls cover weakened binding; strength is not graded here.

By UniProt entry, the sequences of proteins in these tests, tags left out. Where a name states a change or a piece, a line headed by the entry shows the natural chain unless it says otherwise. Residues count along the entry.
UniProt Q02413, residues 50-548: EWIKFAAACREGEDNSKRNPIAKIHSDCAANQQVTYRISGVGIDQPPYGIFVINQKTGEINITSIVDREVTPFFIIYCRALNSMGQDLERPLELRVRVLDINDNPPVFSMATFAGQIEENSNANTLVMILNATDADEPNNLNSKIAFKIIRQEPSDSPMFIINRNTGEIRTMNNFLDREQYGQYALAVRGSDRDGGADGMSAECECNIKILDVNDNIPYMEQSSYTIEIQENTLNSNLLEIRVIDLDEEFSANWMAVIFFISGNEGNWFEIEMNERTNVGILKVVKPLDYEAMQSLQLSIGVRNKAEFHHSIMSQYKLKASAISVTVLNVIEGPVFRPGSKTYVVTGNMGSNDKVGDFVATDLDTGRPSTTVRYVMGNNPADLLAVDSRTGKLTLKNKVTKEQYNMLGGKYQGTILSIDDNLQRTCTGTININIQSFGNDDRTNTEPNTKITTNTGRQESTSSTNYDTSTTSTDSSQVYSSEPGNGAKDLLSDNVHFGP
UniProt Q2G0L4, residues 36-1315: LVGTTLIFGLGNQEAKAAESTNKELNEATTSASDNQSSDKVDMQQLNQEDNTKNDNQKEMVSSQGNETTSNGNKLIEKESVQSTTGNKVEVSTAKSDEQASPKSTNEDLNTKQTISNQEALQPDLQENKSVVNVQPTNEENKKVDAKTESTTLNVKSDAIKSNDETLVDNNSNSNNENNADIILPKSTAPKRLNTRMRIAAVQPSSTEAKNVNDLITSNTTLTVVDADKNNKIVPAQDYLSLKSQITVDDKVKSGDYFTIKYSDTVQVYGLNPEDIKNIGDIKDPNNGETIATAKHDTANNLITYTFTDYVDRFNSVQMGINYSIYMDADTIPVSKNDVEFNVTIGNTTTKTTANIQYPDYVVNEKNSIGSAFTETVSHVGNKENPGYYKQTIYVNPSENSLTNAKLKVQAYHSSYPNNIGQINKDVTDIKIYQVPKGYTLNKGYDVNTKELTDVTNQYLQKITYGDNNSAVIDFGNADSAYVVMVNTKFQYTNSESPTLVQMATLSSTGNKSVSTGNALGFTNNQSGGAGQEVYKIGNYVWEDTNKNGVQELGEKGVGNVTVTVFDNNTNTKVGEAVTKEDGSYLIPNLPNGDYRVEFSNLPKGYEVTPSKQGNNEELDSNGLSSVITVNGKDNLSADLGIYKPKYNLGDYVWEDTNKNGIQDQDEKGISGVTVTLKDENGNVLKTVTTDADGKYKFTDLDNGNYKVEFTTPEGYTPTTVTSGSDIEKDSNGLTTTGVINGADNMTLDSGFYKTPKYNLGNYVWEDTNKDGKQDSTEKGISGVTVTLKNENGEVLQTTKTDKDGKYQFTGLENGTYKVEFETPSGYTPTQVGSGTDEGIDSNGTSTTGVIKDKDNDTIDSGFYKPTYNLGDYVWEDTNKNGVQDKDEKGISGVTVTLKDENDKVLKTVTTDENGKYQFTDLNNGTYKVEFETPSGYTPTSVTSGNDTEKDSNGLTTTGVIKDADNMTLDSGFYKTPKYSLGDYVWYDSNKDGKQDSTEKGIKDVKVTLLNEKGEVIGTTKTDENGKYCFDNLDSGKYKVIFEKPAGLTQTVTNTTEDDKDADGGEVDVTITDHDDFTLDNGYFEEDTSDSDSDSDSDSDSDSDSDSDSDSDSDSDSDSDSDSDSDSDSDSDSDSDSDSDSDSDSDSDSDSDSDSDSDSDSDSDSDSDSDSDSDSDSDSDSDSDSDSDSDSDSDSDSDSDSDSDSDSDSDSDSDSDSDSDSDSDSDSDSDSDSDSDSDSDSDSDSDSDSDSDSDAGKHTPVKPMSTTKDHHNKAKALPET

Tests used:
[1] = target: recombinant human Dsg1-Fc chimera (human) (UniProt Q02413); experiment: adherence of bacteria to coated wells; S. aureus NCTC8325-4 pre-incubated for 30 min at room temperature with Dsg1-Fc (10 μg/ml), IgG1 Fc (10 μg/ml) or PBS, then added to wells coated with Dsg1-Fc (1 μg/well); crystal violet, absorbance at 570 nm; only the target purified
[2] = target: recombinant human Dsg1-Fc chimera (human) (UniProt Q02413); experiment: adherence of bacteria to coated wells; Dsg1-Fc chimera coated (0.1 to 1 μg/well, carbonate buffer pH 9.6); S. aureus NCTC8325-4 or NCTC8325-4ΔsdrD in PBS added for 2 h at 37 °C; crystal violet, absorbance at 570 nm; only the target purified

Question: Which results are given for “SdrD on S. aureus NCTC8325-4 cells (from UniProt Q2G0L4 36-1315)”?
Answer: binding [1]: binds; binding [2]: binds
